This passage reports binding signal results from PMC7819943, “Rice protein-binding microarrays: a tool to detect cis-acting elements near promoter regions in rice”.

By UniProt entry, the sequences of proteins in these tests, tags left out.
UniProt Q0JBA9, entry or part of it: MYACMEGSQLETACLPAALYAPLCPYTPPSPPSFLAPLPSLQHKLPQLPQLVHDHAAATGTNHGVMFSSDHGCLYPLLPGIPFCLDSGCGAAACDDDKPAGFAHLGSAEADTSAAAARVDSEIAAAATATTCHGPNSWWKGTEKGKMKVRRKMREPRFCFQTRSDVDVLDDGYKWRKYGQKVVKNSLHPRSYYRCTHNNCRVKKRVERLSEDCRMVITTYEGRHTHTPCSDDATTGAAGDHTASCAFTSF

The list shows a part of the results.

This experiment addresses OsWRKY34 (Oryza sativa, UniProt Q0JBA9 1-250). As to the kind of experiment: protein-binding microarray (RPBM); PBS, 2% BSA, 51.3 ng/ul salmon testes DNA, 50 uM zinc acetate, 200 nM TF, 25 C, 1 h; high values mean tight binding. As to conditions: protein: recombinant; tags: N-terminal polyhistidine and DsRed monomer fusion (pET32a); label: CyDye5-dUTP incorporated in the synthesized complementary strand; 3' TTTTT single-stranded linker to array surface; dsDNA, one strand shown. An outline of the steps: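 Using Ni–NTA, transcription factors fused N-terminally to polyhistidine and DsRed were purified after expression in E. coli BL21-CodonPlus. These were incubated at 200 nM with a blocked, double-stranded custom Agilent array for 1 h at 25 °C in a buffer containing 50 µM zinc acetate, and the array was washed. The binding signal is per-feature fluorescence intensity (arbitrary units) on an Axon 4000B scanner.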
As for “ACCAAACCGCACATGACACACATTCACACAACCGCACGCACGGAGTCACCTAGTGCAG”, the binding signal is 8230 fluorescence intensity (a.u.).

Turning to “CAATTCACGCCACCCGCTCCGCCTCTCGCCGCCTCGACCGCGGAGTCACCTAGTGCAG”, the binding signal is 11000 fluorescence intensity (a.u.).

Turning to “GGCCTGGAGCTCAGTCAAACAGTTTCAGCTCAGCTCTATCCGGAGTCACCTAGTGCAG”, the binding signal was 8520 fluorescence intensity (a.u.).

With “GGGGACCCAGCCGATTCGCCCAGCCACGCCACCGAGCGCTCGGAGTCACCTAGTGCAG”, the binding signal was 10600 fluorescence intensity (a.u.).

Turning to “TGCTCTTTTTTTCTTGATTATAACCTTCCGGGGTAGTTTTCGGAGTCACCTAGTGCAG”, the binding signal is 8720 fluorescence intensity (a.u.).

“GGTGTGTGTTAGTACAATGAGTGATTGCTATGTGTAGATACGGAGTCACCTAGTGCAG”: the binding signal was 10100 fluorescence intensity (a.u.).

Consider “GGTGTGCAATCAACTTGTTGCCGTCGTGTGCAATGGTTCGCGGAGTCACCTAGTGCAG”, for which the binding signal is 8170 fluorescence intensity (a.u.).

With “TCTTCTTCTTCTCGATCTTCTTTCTCTCGTTCACACCTCACGGAGTCACCTAGTGCAG”, the binding signal is 10400 fluorescence intensity (a.u.).

Take “TCCTCCAGGGCATACAGCATCATTTGCAGGTCTCTCAACTCGGAGTCACCTAGTGCAG”: the binding signal is 8070 fluorescence intensity (a.u.).

For “TGCCAATACAAAATTTCTGTACTGTAGAATCGATGTTTACCGGAGTCACCTAGTGCAG”, the binding signal was 8260 fluorescence intensity (a.u.).

With “AAGGTGCATTTGGGGTGGTGTTTCCGCTCGGAGATGGTCACGGAGTCACCTAGTGCAG”, the binding signal was 11400 fluorescence intensity (a.u.).

For the sequence “TTCCAGTTAGCAACGCATTGAGCCATTTTTACATATTCTGCGGAGTCACCTAGTGCAG”, the binding signal was 57100 fluorescence intensity (a.u.).

In the case of “ACTTCTCGGATTCCTTCCGAGCCTGAACCCTGAGTTCCTCCGGAGTCACCTAGTGCAG”, the binding signal was 9180 fluorescence intensity (a.u.).

Consider “CCTTGCACGGCTCTTCCTGCTAGGGGTGGGCATTCGGTCTCGGAGTCACCTAGTGCAG”, for which the binding signal is 9700 fluorescence intensity (a.u.).

With “GGCCTCGTCCTTCTCTTCAACTGGGTTCTTCACCGGCTCACGGAGTCACCTAGTGCAG”, the binding signal is 8540 fluorescence intensity (a.u.).

Consider “TTTTTTTACTGTTTCACTTAGCTCACGCTCGAGTCACAGTCGGAGTCACCTAGTGCAG”, for which the binding signal is 9000 fluorescence intensity (a.u.).

“TTCTTAGTTTGCTCTAAACACATACTCCCTCTATTTTATACGGAGTCACCTAGTGCAG”: the binding signal was 10000 fluorescence intensity (a.u.).

For the sequence “CACATACCTCATGTTCATTAATTTATGCCGTTTCCATTTACGGAGTCACCTAGTGCAG”, the binding signal was 8270 fluorescence intensity (a.u.).

Take “AATCATTTCCGATATCCGGTCAAACCAATATGACATAAAACGGAGTCACCTAGTGCAG”: the binding signal is 8270 fluorescence intensity (a.u.).

With “ACAACAGAACAACTCGAAACTGTTTTTGACTTTTGGCACACGGAGTCACCTAGTGCAG”, the binding signal is 8080 fluorescence intensity (a.u.).

Turning to “GAGACAGGGGAGGAGGGTGTATATACGAAGTTCGAAGTGACGGAGTCACCTAGTGCAG”, the binding signal is 9120 fluorescence intensity (a.u.).

As for “TGGAGAGAGAGAGAGAGAGCCCCGCCGCCGCTGTCCTTGCCGGAGTCACCTAGTGCAG”, the binding signal is 8350 fluorescence intensity (a.u.).

For the sequence “TCACTGAAGCCAGGCCTATTTGTTTTTGCAGTATCTAAACCGGAGTCACCTAGTGCAG”, the binding signal is 11700 fluorescence intensity (a.u.).

“AGCAGGAGACTAGATAGCTCTTTGTTCTTGTTTGTTTTCTCGGAGTCACCTAGTGCAG”: the binding signal is 9210 fluorescence intensity (a.u.).

Turning to “GTCACGGCCGCCTCCGCCATCGCCTCCGCCACCTCCACCACGGAGTCACCTAGTGCAG”, the binding signal is 13000 fluorescence intensity (a.u.).

On to “GGGAGCTTTGACCAGTCAACGGTCAAACGTTCAAAGGTCTCGGAGTCACCTAGTGCAG”, for which the binding signal was 10900 fluorescence intensity (a.u.).

For the sequence “CACCGCCATCTTCCTCTTCTTCTTCGTCGTCGTGGTTGGCCGGAGTCACCTAGTGCAG”, the binding signal was 11100 fluorescence intensity (a.u.).

As to “AACATCCCGAAACTAGCTAGATCACCCTGCTCCTGTCCTGCGGAGTCACCTAGTGCAG”, the binding signal was 8140 fluorescence intensity (a.u.).

Take “CACAATCATCTATACATTTCATATTTGCATATCCTTTTTTCGGAGTCACCTAGTGCAG”: the binding signal was 11300 fluorescence intensity (a.u.).

Regarding “TTTTATTGGTTCTTCTGTGCACCCTGGTATCCTTCCAACACGGAGTCACCTAGTGCAG”, the binding signal is 13000 fluorescence intensity (a.u.).

Regarding “ATCTCGCTCATGTAAACTATGTAATTGATTTTTTTCATCCCGGAGTCACCTAGTGCAG”, the binding signal was 10200 fluorescence intensity (a.u.).

Regarding “CTCATTTTTCCTAATTCACATCTTTCGTTTTTGGTACGCACGGAGTCACCTAGTGCAG”, the binding signal was 10000 fluorescence intensity (a.u.).

Take “TTTTTGGGGTTTTCTCTTCTTGATTGATTCGTTCTTGGCGCGGAGTCACCTAGTGCAG”: the binding signal is 13100 fluorescence intensity (a.u.).

As for “ACACACATCACACTGGCCGTCCTCCTCAAAAGCCGCGCCCCGGAGTCACCTAGTGCAG”, the binding signal was 8990 fluorescence intensity (a.u.).

Turning to “ACTAAGCGCATTGATTCCCATTATATACTTCCTTTCCTAACGGAGTCACCTAGTGCAG”, the binding signal was 11400 fluorescence intensity (a.u.).

Take “CGCCCGTTCCGTTCCGTTCCCTATCCCAGGCTCTCCCGGCCGGAGTCACCTAGTGCAG”: the binding signal is 11200 fluorescence intensity (a.u.).

In the case of “GTTTGGCAACAATTGGGGAGGGGCATAATATTAGCTCTGGCGGAGTCACCTAGTGCAG”, the binding signal was 8260 fluorescence intensity (a.u.).

For the sequence “GGAGGAGGGCTCGCTTTATTGGAGTTTGTTCGTTTCTTTCCGGAGTCACCTAGTGCAG”, the binding signal is 11100 fluorescence intensity (a.u.).

On to “CAGTCACCACATCTCATTTCCTCGTGCTGCTTCCACCCCTCGGAGTCACCTAGTGCAG”, for which the binding signal is 8420 fluorescence intensity (a.u.).

Turning to “TACTCCACTCTCTTGGATTTATCGAGCATTGACCATACACCGGAGTCACCTAGTGCAG”, the binding signal is 8190 fluorescence intensity (a.u.).

Take “TTTTCACCCTGTTTGCACTTGGCACTTTTACAATTCACACCGGAGTCACCTAGTGCAG”: the binding signal was 9840 fluorescence intensity (a.u.).

Turning to “TTCTTGGTGTCGGTGTGCCTGGTGCTGGTGACGCGCCATGCGGAGTCACCTAGTGCAG”, the binding signal is 8120 fluorescence intensity (a.u.).

For the sequence “CTAGCACAAGACACCAAGCACCCATGCACACGCTTCCTATCGGAGTCACCTAGTGCAG”, the binding signal was 9180 fluorescence intensity (a.u.).

Regarding “TCCCCGAATTCTCCCGCAGCCCAACATTTCATTCAACCACCGGAGTCACCTAGTGCAG”, the binding signal is 10700 fluorescence intensity (a.u.).

As for “TACTTTACTTTACATCATTTACTAAGTACATGTACTTTTTCGGAGTCACCTAGTGCAG”, the binding signal is 8860 fluorescence intensity (a.u.).

Regarding “TTTCCTTTCACCTTTGTCTAGTGGTATTCTCTGATCAGGCCGGAGTCACCTAGTGCAG”, the binding signal was 10100 fluorescence intensity (a.u.).

Regarding “TCAAGACTTATTAATTGGCCGTTTTTCCCTTTTGTCTCGGCGGAGTCACCTAGTGCAG”, the binding signal is 8450 fluorescence intensity (a.u.).

Take “TTATGTAGCATCCTGAGTTTGACTCCTTTACTTAAAAACGCGGAGTCACCTAGTGCAG”: the binding signal was 8630 fluorescence intensity (a.u.).

Regarding “CATCTCTGCCTCACTCTTCTCCACACTAACACCCAAGATGCGGAGTCACCTAGTGCAG”, the binding signal is 9030 fluorescence intensity (a.u.).

For “TGCGCTTCGCCACTCTCCACCACCCTACGCTCTGGCCTCGCGGAGTCACCTAGTGCAG”, the binding signal is 8580 fluorescence intensity (a.u.).

Regarding “CAACTCTGCGTCGCCTTCTATTCTCTTCTCTCTTCTCTCTCGGAGTCACCTAGTGCAG”, the binding signal is 13600 fluorescence intensity (a.u.).

“GCATATAATTAGTTTACCATGGCTTTAATCAATCATATGCCGGAGTCACCTAGTGCAG”: the binding signal is 29300 fluorescence intensity (a.u.).

“TCCTGTGTTCTTGTTGTTGTTCGTCAGAGACGCTGATCGACGGAGTCACCTAGTGCAG”: the binding signal was 9680 fluorescence intensity (a.u.).

With “CATTATCCGTCCATATTCGCTCTGTTTTCACTCCTACTCACGGAGTCACCTAGTGCAG”, the binding signal was 12000 fluorescence intensity (a.u.).
